# Results as given in the supplement of paper PMC7666118.
# Chains of the proteins cited; added tags and fusions are not shown. Lines headed by an entry give the natural chain unless they say otherwise; changes in a name come on top.
# UniProt Q13011: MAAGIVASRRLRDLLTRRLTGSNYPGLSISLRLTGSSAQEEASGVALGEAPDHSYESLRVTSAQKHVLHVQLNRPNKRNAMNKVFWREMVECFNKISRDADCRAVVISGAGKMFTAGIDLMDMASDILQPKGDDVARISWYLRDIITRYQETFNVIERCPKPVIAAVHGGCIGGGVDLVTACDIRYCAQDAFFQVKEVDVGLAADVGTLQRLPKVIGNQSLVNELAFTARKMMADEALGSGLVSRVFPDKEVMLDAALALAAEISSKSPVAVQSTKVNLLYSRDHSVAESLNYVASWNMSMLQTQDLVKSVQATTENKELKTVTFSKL
# UniProt Q6P1L5: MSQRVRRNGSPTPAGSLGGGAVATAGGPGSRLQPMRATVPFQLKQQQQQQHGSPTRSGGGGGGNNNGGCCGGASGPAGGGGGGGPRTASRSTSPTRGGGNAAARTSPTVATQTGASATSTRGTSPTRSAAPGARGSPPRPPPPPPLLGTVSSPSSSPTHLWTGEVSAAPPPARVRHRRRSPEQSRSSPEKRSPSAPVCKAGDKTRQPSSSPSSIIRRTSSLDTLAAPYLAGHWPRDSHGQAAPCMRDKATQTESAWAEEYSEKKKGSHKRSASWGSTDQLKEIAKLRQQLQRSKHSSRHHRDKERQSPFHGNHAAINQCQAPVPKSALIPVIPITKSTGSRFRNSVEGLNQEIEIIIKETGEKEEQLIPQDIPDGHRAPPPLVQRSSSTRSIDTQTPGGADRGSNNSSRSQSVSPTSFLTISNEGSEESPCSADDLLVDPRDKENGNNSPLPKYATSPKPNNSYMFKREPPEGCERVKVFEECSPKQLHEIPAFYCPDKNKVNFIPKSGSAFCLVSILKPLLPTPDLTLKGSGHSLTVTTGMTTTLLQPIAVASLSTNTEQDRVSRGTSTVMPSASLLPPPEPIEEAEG
# UniProt Q96L91, whole entry: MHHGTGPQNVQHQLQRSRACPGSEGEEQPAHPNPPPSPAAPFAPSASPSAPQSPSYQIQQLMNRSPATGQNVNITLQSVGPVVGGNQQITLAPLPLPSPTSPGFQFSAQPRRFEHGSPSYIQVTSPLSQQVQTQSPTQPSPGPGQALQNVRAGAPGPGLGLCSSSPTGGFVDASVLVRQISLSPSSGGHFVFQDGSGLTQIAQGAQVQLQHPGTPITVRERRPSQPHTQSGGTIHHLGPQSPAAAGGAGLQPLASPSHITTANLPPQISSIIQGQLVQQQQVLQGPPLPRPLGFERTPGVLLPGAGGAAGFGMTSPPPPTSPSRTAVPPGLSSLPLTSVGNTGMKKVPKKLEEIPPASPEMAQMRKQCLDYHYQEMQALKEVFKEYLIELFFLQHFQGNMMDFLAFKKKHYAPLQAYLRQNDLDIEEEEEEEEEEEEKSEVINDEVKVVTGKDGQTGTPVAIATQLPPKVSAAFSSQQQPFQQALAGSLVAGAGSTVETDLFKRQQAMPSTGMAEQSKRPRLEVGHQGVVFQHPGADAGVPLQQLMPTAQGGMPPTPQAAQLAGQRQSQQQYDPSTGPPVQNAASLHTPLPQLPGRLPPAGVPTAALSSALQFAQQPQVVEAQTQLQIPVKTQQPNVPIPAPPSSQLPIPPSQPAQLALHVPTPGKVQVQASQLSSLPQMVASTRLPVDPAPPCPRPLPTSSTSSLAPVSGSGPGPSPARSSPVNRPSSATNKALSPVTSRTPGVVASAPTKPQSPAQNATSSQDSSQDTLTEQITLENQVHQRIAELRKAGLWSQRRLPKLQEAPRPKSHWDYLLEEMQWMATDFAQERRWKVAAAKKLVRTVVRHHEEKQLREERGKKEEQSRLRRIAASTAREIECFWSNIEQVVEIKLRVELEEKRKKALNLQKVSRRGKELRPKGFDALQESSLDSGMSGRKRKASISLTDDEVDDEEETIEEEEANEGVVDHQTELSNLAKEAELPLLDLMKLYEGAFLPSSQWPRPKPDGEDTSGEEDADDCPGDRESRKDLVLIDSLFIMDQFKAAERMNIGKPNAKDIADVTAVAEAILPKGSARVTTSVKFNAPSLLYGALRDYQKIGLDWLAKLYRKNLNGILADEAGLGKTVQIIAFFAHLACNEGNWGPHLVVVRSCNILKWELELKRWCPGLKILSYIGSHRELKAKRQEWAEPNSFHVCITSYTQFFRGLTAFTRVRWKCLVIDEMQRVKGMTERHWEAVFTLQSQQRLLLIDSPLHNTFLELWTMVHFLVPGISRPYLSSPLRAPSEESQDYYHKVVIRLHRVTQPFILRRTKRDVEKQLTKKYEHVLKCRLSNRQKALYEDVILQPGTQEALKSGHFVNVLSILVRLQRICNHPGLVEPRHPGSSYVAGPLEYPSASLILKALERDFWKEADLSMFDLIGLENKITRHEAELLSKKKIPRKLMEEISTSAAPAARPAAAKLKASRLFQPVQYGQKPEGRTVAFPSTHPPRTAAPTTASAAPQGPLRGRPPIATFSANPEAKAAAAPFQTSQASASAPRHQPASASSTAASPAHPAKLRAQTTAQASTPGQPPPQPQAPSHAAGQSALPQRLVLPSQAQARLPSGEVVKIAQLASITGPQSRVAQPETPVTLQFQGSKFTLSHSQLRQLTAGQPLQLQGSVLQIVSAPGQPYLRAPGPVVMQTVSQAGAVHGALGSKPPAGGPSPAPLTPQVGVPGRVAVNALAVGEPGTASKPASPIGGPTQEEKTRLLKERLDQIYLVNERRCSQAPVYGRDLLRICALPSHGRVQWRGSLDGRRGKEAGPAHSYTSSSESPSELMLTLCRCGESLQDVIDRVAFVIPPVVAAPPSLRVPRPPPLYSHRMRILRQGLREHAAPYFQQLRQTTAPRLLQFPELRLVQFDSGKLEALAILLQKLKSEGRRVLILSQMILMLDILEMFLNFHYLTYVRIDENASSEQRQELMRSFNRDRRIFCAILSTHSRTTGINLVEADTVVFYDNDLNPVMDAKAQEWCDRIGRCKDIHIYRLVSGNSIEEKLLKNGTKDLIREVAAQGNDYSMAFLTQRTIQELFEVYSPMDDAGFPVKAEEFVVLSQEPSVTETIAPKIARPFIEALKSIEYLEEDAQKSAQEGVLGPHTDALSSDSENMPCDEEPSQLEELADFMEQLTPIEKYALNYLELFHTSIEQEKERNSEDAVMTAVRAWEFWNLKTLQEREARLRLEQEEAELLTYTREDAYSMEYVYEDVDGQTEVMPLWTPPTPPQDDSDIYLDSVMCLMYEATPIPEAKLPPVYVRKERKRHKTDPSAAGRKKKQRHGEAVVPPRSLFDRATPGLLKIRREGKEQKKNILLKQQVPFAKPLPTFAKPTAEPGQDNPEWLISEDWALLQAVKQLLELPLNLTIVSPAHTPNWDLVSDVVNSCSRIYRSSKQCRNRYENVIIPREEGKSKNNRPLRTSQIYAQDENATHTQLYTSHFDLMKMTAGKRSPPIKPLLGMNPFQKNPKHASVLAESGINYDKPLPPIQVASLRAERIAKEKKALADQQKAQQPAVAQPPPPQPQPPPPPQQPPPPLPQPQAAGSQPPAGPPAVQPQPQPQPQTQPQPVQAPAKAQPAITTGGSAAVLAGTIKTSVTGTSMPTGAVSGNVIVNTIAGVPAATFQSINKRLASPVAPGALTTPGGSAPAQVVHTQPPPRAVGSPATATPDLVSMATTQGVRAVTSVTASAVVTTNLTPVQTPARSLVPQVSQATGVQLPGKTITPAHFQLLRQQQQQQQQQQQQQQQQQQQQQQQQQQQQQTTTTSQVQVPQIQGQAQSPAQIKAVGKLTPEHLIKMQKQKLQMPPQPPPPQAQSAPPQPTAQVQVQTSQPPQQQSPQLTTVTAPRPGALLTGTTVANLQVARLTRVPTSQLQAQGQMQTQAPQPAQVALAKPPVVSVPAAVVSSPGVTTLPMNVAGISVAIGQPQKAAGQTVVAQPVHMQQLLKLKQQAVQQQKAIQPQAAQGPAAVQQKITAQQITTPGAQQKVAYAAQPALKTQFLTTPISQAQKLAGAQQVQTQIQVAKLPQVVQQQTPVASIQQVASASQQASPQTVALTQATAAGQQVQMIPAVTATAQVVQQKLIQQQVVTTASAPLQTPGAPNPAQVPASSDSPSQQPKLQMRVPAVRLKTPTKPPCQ
# UniProt Q9NYP7: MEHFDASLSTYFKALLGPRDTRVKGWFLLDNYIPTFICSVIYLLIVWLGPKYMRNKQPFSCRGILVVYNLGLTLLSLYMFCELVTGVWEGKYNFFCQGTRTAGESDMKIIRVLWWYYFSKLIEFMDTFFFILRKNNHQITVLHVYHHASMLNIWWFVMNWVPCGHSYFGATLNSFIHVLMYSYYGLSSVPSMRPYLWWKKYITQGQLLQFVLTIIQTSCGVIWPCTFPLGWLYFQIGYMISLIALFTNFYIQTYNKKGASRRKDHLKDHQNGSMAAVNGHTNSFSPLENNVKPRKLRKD
# UniProt P55199: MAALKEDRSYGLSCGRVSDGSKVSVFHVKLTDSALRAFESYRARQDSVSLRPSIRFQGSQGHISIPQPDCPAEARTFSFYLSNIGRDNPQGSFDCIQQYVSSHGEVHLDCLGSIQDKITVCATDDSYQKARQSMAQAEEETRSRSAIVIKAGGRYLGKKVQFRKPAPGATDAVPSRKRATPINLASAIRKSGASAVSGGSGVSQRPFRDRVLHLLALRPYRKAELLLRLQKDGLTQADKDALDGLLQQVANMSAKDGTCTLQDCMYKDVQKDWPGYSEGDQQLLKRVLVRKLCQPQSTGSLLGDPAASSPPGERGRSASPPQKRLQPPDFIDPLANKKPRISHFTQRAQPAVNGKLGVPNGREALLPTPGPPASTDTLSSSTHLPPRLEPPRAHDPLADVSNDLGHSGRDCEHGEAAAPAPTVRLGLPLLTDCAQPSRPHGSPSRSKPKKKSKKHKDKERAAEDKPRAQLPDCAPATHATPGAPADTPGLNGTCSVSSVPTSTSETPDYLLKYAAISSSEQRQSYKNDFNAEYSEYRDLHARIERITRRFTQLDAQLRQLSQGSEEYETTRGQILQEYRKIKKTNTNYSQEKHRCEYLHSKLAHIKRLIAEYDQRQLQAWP
# UniProt Q96G46: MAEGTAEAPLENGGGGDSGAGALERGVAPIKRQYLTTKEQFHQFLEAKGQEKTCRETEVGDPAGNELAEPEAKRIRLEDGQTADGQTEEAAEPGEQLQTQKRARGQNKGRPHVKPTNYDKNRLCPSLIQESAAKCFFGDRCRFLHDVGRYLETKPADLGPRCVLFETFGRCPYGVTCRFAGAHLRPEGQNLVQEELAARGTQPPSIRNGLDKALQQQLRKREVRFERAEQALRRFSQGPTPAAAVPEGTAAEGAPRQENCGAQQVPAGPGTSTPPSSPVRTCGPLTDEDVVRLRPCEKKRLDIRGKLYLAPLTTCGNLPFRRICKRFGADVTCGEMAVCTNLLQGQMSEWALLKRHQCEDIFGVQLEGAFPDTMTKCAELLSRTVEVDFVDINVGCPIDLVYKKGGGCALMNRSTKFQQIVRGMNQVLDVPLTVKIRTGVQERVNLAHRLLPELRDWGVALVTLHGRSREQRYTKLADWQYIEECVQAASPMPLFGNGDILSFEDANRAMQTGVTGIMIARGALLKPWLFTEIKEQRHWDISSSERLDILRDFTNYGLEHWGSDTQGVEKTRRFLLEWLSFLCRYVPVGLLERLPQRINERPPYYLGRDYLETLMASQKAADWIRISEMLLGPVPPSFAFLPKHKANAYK
# UniProt P57772: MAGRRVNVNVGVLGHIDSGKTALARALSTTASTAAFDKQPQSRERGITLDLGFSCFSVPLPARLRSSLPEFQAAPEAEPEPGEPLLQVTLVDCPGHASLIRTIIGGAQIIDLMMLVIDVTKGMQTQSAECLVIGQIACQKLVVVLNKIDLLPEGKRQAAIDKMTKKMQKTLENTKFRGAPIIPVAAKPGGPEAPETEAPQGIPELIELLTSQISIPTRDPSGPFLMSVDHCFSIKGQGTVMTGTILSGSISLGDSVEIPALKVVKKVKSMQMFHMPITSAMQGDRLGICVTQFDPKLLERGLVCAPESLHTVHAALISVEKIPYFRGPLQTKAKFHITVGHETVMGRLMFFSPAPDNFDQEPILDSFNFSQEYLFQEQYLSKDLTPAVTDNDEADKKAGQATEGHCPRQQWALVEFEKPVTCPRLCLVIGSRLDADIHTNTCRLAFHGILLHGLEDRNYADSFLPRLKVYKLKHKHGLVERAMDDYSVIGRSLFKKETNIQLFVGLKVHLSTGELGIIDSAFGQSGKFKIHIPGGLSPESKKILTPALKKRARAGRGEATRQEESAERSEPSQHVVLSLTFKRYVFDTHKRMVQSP
# UniProt Q9Y3B2, whole entry: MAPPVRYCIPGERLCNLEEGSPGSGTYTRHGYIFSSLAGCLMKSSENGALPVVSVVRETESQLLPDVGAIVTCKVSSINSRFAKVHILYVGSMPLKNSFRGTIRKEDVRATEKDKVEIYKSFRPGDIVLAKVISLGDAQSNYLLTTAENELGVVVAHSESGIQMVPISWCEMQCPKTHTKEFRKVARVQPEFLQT
# The list shows a part of the results.
# Compound: COc1ccc(Cn2ccc3cc(C)c(C(=O)NO)cc32)cc1
# Test: dose-dependent thermal stabilisation call (2D-TPP, DLPTP, 10% FDR) (binary (1 = stabilised)); higher = stabilised by the compound
# Details: system: HL-60 intact cells; concentration range 0.04-10 µM
# Description: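 2D thermal proteome profiling in intact HL-60 cells treated with BRD-3811 (0, 0.04, 0.29, 2, 10 uM) for 90 min at 37 C, then heated 3 min at one of 12 temperatures (42-63.9 C). Soluble protein was quantified by TMT10 MS. The value is the DLPTP call of the paper: dose-dependent thermal stabilisation over all temperatures at 10% FDR (F-test of a dose-response against a flat model); one experiment, one call per tested protein.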
row,Target,dose-dependent thermal stabilisation call
1,ECH1 (UniProt Q13011),inactive: 0
2,FAM134B (UniProt Q9H6L5),inactive: 0
3,FAM117B (UniProt Q6P1L5),inactive: 0
4,EP400 (UniProt Q96L91),inactive: 0
5,ELOVL5 (UniProt Q9NYP7),inactive: 0
6,ELL (UniProt P55199),inactive: 0
7,DUS3L (UniProt Q96G46),inactive: 0
8,EEFSEC (UniProt P57772),inactive: 0
9,EXOSC1 (UniProt Q9Y3B2),inactive: 0

# Laid out differently: entries from further up
row	Target	dose-dependent thermal stabilisation call
3	FAM117B (UniProt Q6P1L5)	inactive: 0
4	EP400 (UniProt Q96L91)	inactive: 0
